# According to PubChem BioAssay AID2685 (National Center for Advancing Translational Sciences (NCATS), 2010):
# The list shows a part of the results. These are further read-outs of the screen, such as a control signal, another cell line or another target. No call is given for them. Most of these compounds were active or inconclusive in the main read-out, so they are no random draw. The note in brackets gives the kind of curve behind each potency; many fits are weak.
# Assay: qHTS Assay for Lipid Storage Modulators in Drosophila S3 Cells;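 as to cell number change: cells counted by Cell Tracker Red CMTPX staining in the red channel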
# Settings: BODIPY lipid droplet fluorescence, 18-24 h; for cell number change: measured here: cell count max response, cells fed with added oleic acid
# In short: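 Laser-scanning cytometry quantifies lipid droplet accumulation (500–530 nm total intensity; droplet/cell object ratio) in oleic acid-fed (400 uM added) Drosophila S3 cells treated with a concentration series. 20 uM Triacsin C defined 100% inhibition.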
# [1] = measured here: cell number channel AC50, cells fed with added oleic acid
# [2] = measured here: lipid fluorescence (Fed channel) AC50, cells fed with added oleic acid
SMILES,cell number change,AC50 [1],AC50 [2]
O=C(NCc1ccccc1)C1CC2CCCC(C1)C2=O (stereo unspecified),-16.3%,"0.58 µM [falling, full curve]","29.1 µM [falling, single point]"
Cc1cc(C)n2nc(SCC(=O)Nc3ccccc3C)nc2n1,7.69%,–,–
OCCCc1nc2n(n1)C(c1ccccc1Cl)C=C(c1cccs1)N2 (stereo unspecified),–,"0.58 µM [rising, full curve]","0.366 µM [rising, full curve]"
Cc1c(S(=O)(=O)N2CCN(c3cccc(Cl)c3)CC2)c(=O)n(C)c(=O)n1C,21.4%,–,"5.17 µM [rising, full curve, poor fit]"
Cn1ccnc1C(=O)c1cc(=O)c2ccccc2o1,16.9%,–,–
CC(C)c1ccc(NC(=O)NC2CCN(CC(=O)Nc3cccc4ccccc34)CC2)cc1,22.9%,"6.51 µM [falling, single point]","7.31 µM [falling, partial curve]"
O=C(O)/C=C/C(=O)Nc1ccc(OC(F)(F)Cl)cc1,70.1%,"16.4 µM [rising, single point]",–
CNNC(=S)Nc1cccc(C(F)(F)F)c1,–,–,"10.3 µM [rising, partial curve]"
COc1cccc(CN2CCN(Cc3cccc(Oc4ccccc4)c3)CC2)c1OC,–,–,"0.13 µM [rising, full curve, poor fit]"
Clc1ccc(C2=NCCN2)cc1,10.8%,–,–
CC(=O)Nc1cc2c(cc1NC(=O)Cn1nc(-c3ccc(F)cc3)ccc1=O)OCCO2,13%,–,"0.651 µM [rising, partial curve, poor fit]"
CC(C)C(NC(=O)c1ccccc1NC(=O)c1ccccc1)C(=O)NCCCn1ccnc1 (stereo unspecified),36.6%,"9.2 µM [rising, partial curve]","5.8 µM [rising, full curve]"
CCOC(=O)c1cnc2c(-c3ccccc3OC)c(C)nn2c1C,7.76%,–,"0.00461 µM [rising, full curve, poor fit]"
CC(C)CC(COCc1cccc(Cl)c1)N1CCN(C(=O)c2ccc(C(F)(F)F)cc2)CCC1=O (stereo unspecified),-46.7%,"9.2 µM [falling, partial curve]","14.6 µM [falling, partial curve, poor fit]"
COCCN(C(=O)COc1ccccc1C#N)c1c(N)n(Cc2ccccc2)c(=O)[nH]c1=O,9.28%,–,–
CC(NC(=O)C1CCN(S(=O)(=O)c2cccc3nonc23)CC1)c1ccccc1 (stereo unspecified),36.5%,"20.6 µM [rising, partial curve, poor fit]","29.1 µM [falling, single point]"
CCCc1cc(C(=O)Nc2cccnc2Cl)no1,-143%,"29.1 µM [falling, partial curve]","29.1 µM [falling, single point]"
Cc1ccc2c(c1)N(C(=O)CCC(=O)NCCCN1CCOCC1)CC(C)O2 (stereo unspecified),5.76%,–,"4.11 µM [rising, full curve]"
O=C(CN1C(=O)NC2(CCCc3ccccc32)C1=O)N1CCCCC1 (stereo unspecified),-31.5%,"10.3 µM [falling, partial curve, poor fit]",–

SMILES,cell number change,AC50 [1],AC50 [2]
Cc1ccc(-c2cc3nn(-c4ccccc4)c(N)c3c(=O)o2)cc1,-13.4%,–,"20.6 µM [falling, single point]"
CCc1nn(CCCC(=O)N2CCc3ccccc3C2)c(=O)c2cc3occc3n12,-0.613%,–,"0.00461 µM [falling, full curve, poor fit]"
COc1ccc2c(c1)C(=O)N1[C@H]3c4cc(OC)ccc4OC[C@@H]3[C@H](c3ccccc3)[C@]1(C)C(=O)N2,-22.3%,–,"29.1 µM [falling, single point]"
CCOC(=O)CN1C(=O)C(C)(C)Oc2ccc(C(=O)NC(C)(C)CC)cc21,31.5%,"14.6 µM [rising, single point]",–
Cc1cc(C)nc(/N=C(/NC(=O)Nc2cccc(Cl)c2)Nc2ccccc2)n1,-9.95%,–,"3.66 µM [falling, single point]"
Nc1nnnn1/N=C/c1cccc(Br)c1,31.8%,–,–
COc1ccc(C)cc1S(=O)(=O)Nc1cc2c3c(c1)CCN3C(=O)CC2,-8.9%,–,"6.51 µM [rising, single point]"
CC(C)=C[C@@H]1C[C@H](C)[C@H]2CC[C@H](C)c3c(O)c(O)c(C)c1c32,11.4%,"0.092 µM [falling, single point]","1.03 µM [rising, partial curve]"
COc1cc(SC)ccc1C(=O)Nc1ccc(C)cc1C,-4.08%,–,"0.366 µM [rising, full curve, poor fit]"
O=C(CSc1nnc(-c2ccccc2)n1Cc1ccccc1)N1CCCC1,-7.08%,–,–
O=C(NNC(=O)c1ccc(O)cc1O)c1ccc(-c2ccccc2)cc1,21.6%,–,"23.1 µM [rising, partial curve]"
COc1cccc(C2CC(c3cccs3)=NN2C(=O)CSc2nc3ccccc3s2)c1OC (stereo unspecified),-29.4%,–,"16.4 µM [falling, partial curve, poor fit]"
CC(=O)Nc1ccc(S(=O)(=O)N2CCN(S(=O)(=O)c3ccc(F)c(F)c3F)CC2)cc1,–,–,"6.51 µM [rising, single point]"
O=C(N/N=C\C=C\c1ccc([N+](=O)[O-])o1)c1cccs1,6.31%,"0.00461 µM [falling, full curve, poor fit]","0.58 µM [falling, single point]"
Cc1cccc(NC(=O)CCS(=O)(=O)c2ccc(Br)cc2)c1,–,"0.58 µM [rising, single point]","29.1 µM [rising, single point]"
COc1cccc(-n2cc3c(c2-c2ccccc2)c(=O)n(C)c(=O)n3C)c1,30%,"2.59 µM [rising, single point]",–
COc1cc(S(=O)(=O)NCC2CCCO2)ccc1Br (stereo unspecified),-88.9%,"29.1 µM [falling, single point]",–
COC(=O)c1cc(=O)n(C2CC2)c(=NC2CC2)s1,–,–,"1.64 µM [falling, single point]"
Cc1cc(C)c2[nH]c(=O)c(CN(CC3CCCO3)C(=S)Nc3ccccc3)cc2c1 (stereo unspecified),2.9%,–,"0.326 µM [rising, full curve, poor fit]"

# 4 consecutive compounds from above:
SMILES,cell number change,AC50 [1],AC50 [2]
COc1ccc2c(c1)C(=O)N1[C@H]3c4cc(OC)ccc4OC[C@@H]3[C@H](c3ccccc3)[C@]1(C)C(=O)N2,-22.3%,–,"29.1 µM [falling, single point]"
CCOC(=O)CN1C(=O)C(C)(C)Oc2ccc(C(=O)NC(C)(C)CC)cc21,31.5%,"14.6 µM [rising, single point]",–
Cc1cc(C)nc(/N=C(/NC(=O)Nc2cccc(Cl)c2)Nc2ccccc2)n1,-9.95%,–,"3.66 µM [falling, single point]"
Nc1nnnn1/N=C/c1cccc(Br)c1,31.8%,–,–

# Following part:

SMILES,cell number change,AC50 [1],AC50 [2]
CN(c1ccccc1)S(=O)(=O)c1ccc(C(=O)NCc2ccccn2)cc1,–,"0.116 µM [rising, full curve, poor fit]",–
CCN(CC)CCNc1nc(-c2ccco2)c2c(c1C#N)CC(C)(C)OC2,1.11%,"1.16 µM [rising, partial curve]","0.411 µM [falling, partial curve, poor fit]"
O=C(COC(=O)c1ccc(Cl)nc1)NCc1ccc2c(c1)OCO2,11.7%,–,"0.731 µM [rising, full curve, poor fit]"
Cc1nnc(SCC2=C(C(=O)O)N3C(=O)C(NC(=O)Cn4nc(C(F)F)cc4C)C3SC2)s1 (stereo unspecified),-47.2%,"29.1 µM [falling, single point]","0.731 µM [falling, partial curve, poor fit]"
O=C(CSc1nnc(-c2cc3ccccc3cc2O)n1Cc1ccco1)c1ccc(F)cc1,-31.3%,"8.2 µM [falling, partial curve]","32.6 µM [falling, single point]"
Nc1nc(N)nc(-c2ccccc2-c2nc(N)nc(N)n2)n1,23.5%,"2.06 µM [falling, single point]","2.31 µM [falling, partial curve]"
COc1cccc(NC(=O)CSc2nc3ccccc3n2C)c1,-18.5%,–,"29.1 µM [falling, partial curve]"
COC(=O)c1ccc(C(=O)OC)c(NC(=S)N2CCCCC2C)c1 (stereo unspecified),0.851%,–,"9.2 µM [rising, partial curve]"
Brc1ccc(-c2csc(-c3ccncc3)n2)cc1,-5.77%,–,"1.46 µM [rising, full curve, poor fit]"
CCN1CCCC1CNc1ccc(S(C)(=O)=O)cc1[N+](=O)[O-] (stereo unspecified),20%,–,"6.51 µM [rising, single point]"
Cc1ccc(Cn2nnc3c(=O)[nH]c(C4CCN(S(=O)(=O)c5ccc(S(=O)(=O)NC6CC6)cc5)CC4)nc32)cc1,27.8%,–,"0.116 µM [rising, full curve, poor fit]"
COc1cc2cnc(-c3ccccc3)c(-c3ccc(C#N)cc3)c2cc1OC,-49.7%,"7.31 µM [falling, partial curve, poor fit]","9.2 µM [falling, partial curve]"
C#CC(=O)N(c1ccc(OC)c(OC)c1)C(C(=O)NC1CCCC1)c1cccs1 (stereo unspecified),-80.2%,"8.2 µM [falling, partial curve]","7.31 µM [falling, partial curve]"
Cc1ncoc1C(=O)Nc1ccccc1C(N)=O,98%,–,–
CS(=O)(=O)NCCOc1ccc(S(=O)(=O)NCCOc2ccccc2)cc1,-9.52%,–,"6.51 µM [rising, single point]"
CC1CCN(C(=O)C2CCN(CCCc3ccccc3)CC2)CC1,3.01%,–,"5.17 µM [rising, single point]"
Cc1onc(-c2ccccc2Cl)c1C(=O)OCN1C(=O)c2ccccc2C1=O,-21%,"0.206 µM [falling, full curve, poor fit]","29.1 µM [falling, single point]"
COc1ccc(OCc2cc(C(=O)N3CCCN(C(C)=O)CC3)no2)c(Cl)c1,82.8%,"18.4 µM [rising, partial curve]","6.51 µM [rising, partial curve]"
